Data source: PubChem BioAssay AID1259254 (NCATS, 2017)
The deposit covers about 59,000 reagents; this is a random part of them. About 1,550 of them (2.6%) count as active. 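G2 share is only a proxy for re-replication; each gene was hit by three separate siRNAs, and active genes were retested.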 Reagents against one gene are numbered here. Further read-outs or replicates are left out here. The record does not give: the amount of reagent.

Purpose: 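Genome-wide screen for genes that prevent DNA re-replication in cancer cells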 (primary screen)
Cells: human HCT116 colorectal cancer cells
Knock-down reagent: single siRNA against human genes
Timing: 3 days
Measurement: 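Nuclei stained with Hoechst and imaged; cell-cycle phase assigned by DNA content; G2 share scaled per plate, non-targeting siRNA 0%, GMNN siRNA 100%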
Direction: G2 robust z-score and G2 cells, % of GMNN control: higher = more G2 cells, more excess DNA replication
Rule for the call: 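Active siRNAs have a G2 robust z of 5 or more median absolute deviations over the median, which in these data means about 38% or higher of GMNN control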

gene symbol | siRNA no. | G2 robust z-score | G2 cells, % of GMNN control | activity call
MPHOSPH9 | 1 | -0.4 | 0.153 | inactive
MPHOSPH9 | 2 | -0.36 | 0.433 | inactive
MPHOSPH9 | 3 | 0.398 | 5.77 | inactive
IL33 | 1 | 0.000886 | 2.97 | inactive
IL33 | 2 | -0.412 | 0.0656 | inactive
IL33 | 3 | 0.754 | 8.27 | inactive
PLS3 | 1 | -1.28 | -6 | inactive
PLS3 | 2 | -0.267 | 1.09 | inactive
PLS3 | 3 | -0.37 | 0.367 | inactive
ACER1 | 1 | 1.62 | 14.4 | inactive
ACER1 | 2 | 1.47 | 13.3 | inactive
ACER1 | 3 | -1.1 | -4.77 | inactive
NUDT2 | 1 | -0.0593 | 2.55 | inactive
NUDT2 | 2 | -1.74 | -9.25 | inactive
NUDT2 | 3 | -1.34 | -6.46 | inactive
FAM241B | 1 | 0.206 | 4.41 | inactive
FAM241B | 2 | 0.668 | 7.67 | inactive
FAM241B | 3 | 1.5 | 13.5 | inactive
TMEM160 | 1 | 0.013 | 3.06 | inactive
TMEM160 | 2 | 1.66 | 14.7 | inactive
TMEM160 | 3 | 0.65 | 7.54 | inactive
C19orf18 | 1 | -0.45 | -0.199 | inactive
C19orf18 | 2 | -0.236 | 1.3 | inactive
C19orf18 | 3 | -0.838 | -2.93 | inactive
KLK4 | 1 | 0.565 | 6.94 | inactive
KLK4 | 2 | 1.6 | 14.2 | inactive
KLK4 | 3 | -0.911 | -3.44 | inactive
PHTF2 | 1 | 0.94 | 9.58 | inactive
PHTF2 | 2 | -1.62 | -8.46 | inactive
PHTF2 | 3 | -0.298 | 0.869 | inactive
CRIPAK (retired record) | 1 | 1.1 | 10.7 | inactive
CRIPAK (retired record) | 2 | 1.23 | 11.6 | inactive
CRIPAK (retired record) | 3 | 0.28 | 4.94 | inactive
TCF7 | 1 | 0.828 | 8.79 | inactive
TCF7 | 2 | -0.289 | 0.937 | inactive
TCF7 | 3 | -1.24 | -5.76 | inactive
BMS1 | 1 | 3.27 | 26 | inactive
BMS1 | 2 | 1.56 | 13.9 | inactive
BMS1 | 3 | 5.42 | 41.1 | active
HNRNPCP2 | 1 | -0.128 | 2.07 | inactive
HNRNPCP2 | 2 | 1.66 | 14.7 | inactive
HNRNPCP2 | 3 | -0.0178 | 2.84 | inactive
MNX1-AS1 | 1 | -0.286 | 0.953 | inactive
MNX1-AS1 | 2 | -0.281 | 0.992 | inactive
MNX1-AS1 | 3 | 1.62 | 14.3 | inactive
ADGRE1 | 1 | -1.67 | -8.81 | inactive
ADGRE1 | 2 | -0.463 | -0.287 | inactive
ADGRE1 | 3 | -0.365 | 0.4 | inactive
MAPK14 | 1 | -0.17 | 1.77 | inactive
MAPK14 | 2 | -0.722 | -2.11 | inactive
MAPK14 | 3 | -0.512 | -0.637 | inactive
C8orf74 | 1 | 0.0103 | 3.04 | inactive
C8orf74 | 2 | -0.354 | 0.48 | inactive
C8orf74 | 3 | 0.0848 | 3.56 | inactive
POU2AF1 | 1 | 0.338 | 5.34 | inactive
POU2AF1 | 2 | -1.06 | -4.51 | inactive
POU2AF1 | 3 | -0.0798 | 2.41 | inactive
SSR4 | 1 | -0.258 | 1.15 | inactive
SSR4 | 2 | -0.868 | -3.14 | inactive
SSR4 | 3 | -0.674 | -1.78 | inactive
MMD | 1 | -0.269 | 1.08 | inactive
MMD | 2 | 4.59 | 35.2 | inactive
MMD | 3 | 1.24 | 11.7 | inactive
MRM2 | 1 | 0.176 | 4.2 | inactive
MRM2 | 2 | -0.416 | 0.0436 | inactive
MRM2 | 3 | -0.997 | -4.05 | inactive
COG4 | 1 | 0.463 | 6.23 | inactive
COG4 | 2 | 1.44 | 13.1 | inactive
COG4 | 3 | 1.33 | 12.4 | inactive
FEV | 1 | 1.17 | 11.2 | inactive
FEV | 2 | -0.206 | 1.52 | inactive
FEV | 3 | -0.27 | 1.07 | inactive
RNF113A | 1 | 0.437 | 6.04 | inactive
RNF113A | 2 | 1.68 | 14.8 | inactive
RNF113A | 3 | -0.825 | -2.84 | inactive
P4HTM | 1 | -0.34 | 0.575 | inactive
P4HTM | 2 | -0.768 | -2.43 | inactive
P4HTM | 3 | -0.319 | 0.72 | inactive
RNF170 | 1 | -1.67 | -8.81 | inactive
RNF170 | 2 | -0.433 | -0.0771 | inactive
RNF170 | 3 | -0.318 | 0.731 | inactive
MLIP | 1 | -0.531 | -0.77 | inactive
MLIP | 2 | -0.327 | 0.664 | inactive
MLIP | 3 | -0.394 | 0.193 | inactive
RPLP2 | 1 | 2.57 | 21 | inactive
RPLP2 | 2 | 0.865 | 9.05 | inactive
RPLP2 | 3 | 0.93 | 9.51 | inactive
